From paper doi:10.1101/2024.09.30.615974
These are yes or no findings as the source states them, for the method shown. In cells and extracts the contact can be indirect. Here binding means that the protein was enriched with, or labelled near, the bait; the list need not be complete.

Target: T1, AtSAP5 in Arabidopsis leaves (Arabidopsis) (UniProt Q9LHJ8)
T1 sequence: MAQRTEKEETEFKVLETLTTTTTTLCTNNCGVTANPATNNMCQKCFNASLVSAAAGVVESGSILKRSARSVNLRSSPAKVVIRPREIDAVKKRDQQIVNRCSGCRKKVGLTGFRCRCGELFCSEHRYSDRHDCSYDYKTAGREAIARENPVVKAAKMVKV
Experiment: affinity purification with mass spectrometry

B1: CAT2 in Arabidopsis leaves (enzyme, UniProt P25819 1-492)
chain: MDPYKYRPASSYNSPFFTTNSGAPVWNNNSSMTVGPRGPILLEDYHLVEKLANFDRERIPERVVHARGASAKGFFEVTHDISNLTCADFLRAPGVQTPVIVRFSTVIHERGSPETLRDPRGFAVKFYTREGNFDLVGNNFPVFFIRDGMKFPDMVHALKPNPKSHIQENWRILDFFSHHPESLNMFTFLFDDIGIPQDYRHMDGSGVNTYMLINKAGKAHYVKFHWKPTCGVKSLLEEDAIRVGGTNHSHATQDLYDSIAAGNYPEWKLFIQIIDPADEDKFDFDPLDVTKTWPEDILPLQPVGRMVLNKNIDNFFAENEQLAFCPAIIVPGIHYSDDKLLQTRVFSYADTQRHRLGPNYLQLPVNAPKCAHHNNHHEGFMNFMHRDEEVNYFPSRYDQVRHAEKYPTPPAVCSGKRERCIIEKENNFKEPGERYRTFTPERQERFIQRWIDALSDPRITHEIRSIWISYWSQADKSLGQKLASRLNVRPSI
- binding: binds
